Values from PubChem BioAssay AID686937 (Drosophila RNAi Screening Center, 2013)
In all, the deposit lists about 23,000 reagents; below is a random part of those that have a named target and a result. 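Reduced-secretion tags in replicate 1 do not always agree with the z-scores; no criterion for assigning the tags was given.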 Names joined by + are all predicted targets of the reagent. Further read-outs or replicates are left out here. Not given: the amount of reagent.

- Purpose: 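Knock-downs that reduce output of a secreted reporter enzyme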 (primary screen)
- Cell system: Drosophila S2 cells expressing secreted horseradish peroxidase
- Reagents: long dsRNA against Drosophila genes
- Duration: about 5.5 days (5 days dsRNA, then 12 h reporter induction)
- Conditions: reporter expression induced after 5 days of dsRNA, read 12 h later; inducer not stated
- Measurement: 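After 5 days of dsRNA and 12 h of reporter induction, medium peroxidase read by chemiluminescence and scored as per-plate z-score; higher values mean more reporter released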
- Scale: z-score: higher = more reporter secreted into medium

| gene knocked down | DRSC id | z-score, replicate 1 | z-score, replicate 2 | z-score, replicate 3 |
| --- | --- | --- | --- | --- |
| Atg18a (GeneID 38913) | DRSC10943 | 0.42 | 0.39 | – |
| CG9263 (GeneID 34770) | DRSC03176 | 0.48 | 0.42 | – |
| NetB (GeneID 32400) | DRSC20262 | 0.28 | 0.32 | – |
| Atf-2 + veg (retired record) | DRSC04130 | 0.05 | -0.13 | – |
| Atf-2 + veg (retired record) | DRSC04413 | 0.46 | 0.42 | – |
| CG7069 (GeneID 42621) | DRSC16188 | 0.29 | 0.24 | – |
| CG32099 (GeneID 317852) | DRSC21352 | -0.65 | -0.14 | – |
| ckd (GeneID 38402) | DRSC08418 | 0.22 | 0.29 | – |
| CG42493 (GeneID 8674013) | DRSC05309 | -0.8 | -0.67 | – |
| CG13837 (GeneID 42720) | DRSC14687 | 0.49 | 0.09 | – |
| pdm2 (GeneID 34673) | DRSC02496 | 0.36 | 0 | – |
| pdm2 (GeneID 34673) | DRSC02497 | -0.36 | -1.09 | – |
| pdm2 (GeneID 34673) | DRSC03587 | 0 | -0.19 | – |
| Prp18 (GeneID 42285) | DRSC16802 | -1.19 | -0.46 | – |
| CG7017 (GeneID 40213) | DRSC10762 | -1.83 | 0.35 | – |
| CG13024 (GeneID 39880) | DRSC09904 | 0.26 | 0.3 | – |
| ALiX (GeneID 43330) | DRSC14564 | 0.37 | 0.24 | – |
| Hmbs (GeneID 46140) | DRSC08632 | 0.27 | 0.32 | – |
| Cyp309a2 (GeneID 33439) | DRSC00526 | 0.3 | 0.63 | – |
| ND-B14.5A (GeneID 31190) | DRSC18500 | 0.36 | 0.28 | – |
| Osi15 (GeneID 40771) | DRSC12178 | 0.37 | 0.05 | – |
| su(w[a]) (GeneID 31054) | DRSC18840 | 0.15 | 0.12 | – |
| CG11975 (GeneID 41074) | DRSC14452 | 0.56 | 0.59 | – |
| key (GeneID 37967) | DRSC04285 | -0.19 | -0.45 | – |
| CG33257 (GeneID 2768960) | DRSC09917 | 0.01 | 0.09 | – |
| Gr23a (GeneID 33453) | DRSC00410 | 0.38 | 0.31 | – |
| CG7215 + Prx5 | DRSC16214 | 0.41 | 0.48 | – |
| CG7215 + Prx5 | DRSC16215 | 0.23 | 0.16 | – |
| Upf3 (GeneID 37792) | DRSC04092 | 0.17 | 0.03 | – |
| Cpr47Ef (GeneID 36194) | DRSC06336 | 0.34 | 0.18 | – |
| Cpr47Ef (GeneID 36194) | DRSC22450 | -1.47 | 0.02 | – |
| CG9698 (GeneID 43629) | DRSC16539 | 0.4 | 0.56 | – |
| CG6996 (GeneID 40212) | DRSC10758 | 0.42 | 0.6 | – |
| ninaC (GeneID 34012) | DRSC03579 | 0.35 | 0.28 | – |
| CG13539 (GeneID 37680) | DRSC04181 | 0.27 | 0.34 | – |
| CG6204 (GeneID 42877) | DRSC15991 | 0.22 | 0.11 | – |
| CG5087 (GeneID 39035) | DRSC10479 | 0.03 | 0.29 | – |
| CG32762 (GeneID 318198) | DRSC18298 | 0.32 | 0.52 | 0.43 |
| rtp (GeneID 40627) | DRSC12132 | 0.73 | 0.64 | – |
| CG11164 (GeneID 32323) | DRSC19392 | 0.01 | 0.09 | – |
| CG14811 (GeneID 31132) | DRSC17962 | 0.23 | 0.42 | – |
| CG4287 (GeneID 41939) | DRSC15559 | 0.13 | 0.44 | – |
| CG30060 (GeneID 246426) | DRSC05419 | 0.21 | 0.26 | – |
| BomT3 (GeneID 42598) | DRSC13537 | 0.13 | 0.48 | – |
| BomT3 (GeneID 42598) | DRSC15871 | 0.16 | 0.36 | – |
| bmm (GeneID 39611) | DRSC10502 | 0.27 | 0.34 | – |
| CG9395 (GeneID 34742) | DRSC03218 | 0.67 | 0.45 | – |
| mib2 (GeneID 35170) | DRSC02623 | 0.18 | 0.26 | – |
| lectin-24A (GeneID 53543) | DRSC00604 | 0.18 | 0.12 | – |
| Rad51D (GeneID 35937) | DRSC06840 | 0.28 | 0.27 | – |
| CG6287 (GeneID 34554) | DRSC02947 | 0.14 | 0.16 | – |
| cnir (GeneID 33520) | DRSC00499 | 0.3 | 0.44 | – |
| Idgf1 (GeneID 34978) | DRSC03349 | 0.29 | 0.31 | – |
| CG7557 (GeneID 39278) | DRSC10878 | 0.21 | 0.33 | – |
| CG2656 (GeneID 40857) | DRSC12584 | 0.03 | -0.08 | – |
| Rab40 (GeneID 32195) | DRSC19820 | -0.38 | -0.21 | – |

Looked up above:
Under “z-score, replicate 1”, CG7017 (GeneID 40213) [DRSC10762] reads -1.83
Value for CG30060 (GeneID 246426) [DRSC05419] under “z-score, replicate 2”: 0.26
CG6996 (GeneID 40212) [DRSC10758], z-score, replicate 2: 0.6
Under “z-score, replicate 2”, pdm2 (GeneID 34673) [DRSC02497] has -1.09
Under “z-score, replicate 2”, Gr23a (GeneID 33453) [DRSC00410] shows 0.31
ALiX (GeneID 43330) [DRSC14564], z-score, replicate 2 = 0.24
